According to publication PMC8384837:
Substitutions are numbered along the chain they refer to. Some of the results follow. For some assays here: At the low end of the ranking, values are background and their order means little. For some assays here: Construct or isoform of the protein are uncertain.

What was measured:
Conditions in all cases: yeast three-hybrid, YBZ-1, SC-Leu-His + 0.5 mM 3-AT, 4 days
[1] = target: T1, PUM1 PUF domain R1-QFR R2-VFQ R7-NPG S863Q + R864F + Q867R + N899V + Y900F + S1079N + N1080P + E1083G (UniProt Q14671)
T1 sequence: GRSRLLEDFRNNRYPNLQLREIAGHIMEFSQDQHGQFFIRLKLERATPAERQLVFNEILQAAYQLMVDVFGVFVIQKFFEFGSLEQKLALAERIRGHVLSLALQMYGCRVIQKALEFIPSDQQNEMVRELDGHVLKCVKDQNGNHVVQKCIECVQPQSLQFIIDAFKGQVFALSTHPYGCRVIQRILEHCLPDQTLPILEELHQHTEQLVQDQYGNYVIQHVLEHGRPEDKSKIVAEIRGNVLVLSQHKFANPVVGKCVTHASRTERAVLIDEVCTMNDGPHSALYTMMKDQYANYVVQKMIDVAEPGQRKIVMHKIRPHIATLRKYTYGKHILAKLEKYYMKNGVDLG

[2] = target: T2, PUM1 PUF domain R2-VFQ R3-THE R4-TFR N899V + Y900F + C935T + R936H + Q939E + N971T + H972F + Q975R (UniProt Q14671)
T2 sequence: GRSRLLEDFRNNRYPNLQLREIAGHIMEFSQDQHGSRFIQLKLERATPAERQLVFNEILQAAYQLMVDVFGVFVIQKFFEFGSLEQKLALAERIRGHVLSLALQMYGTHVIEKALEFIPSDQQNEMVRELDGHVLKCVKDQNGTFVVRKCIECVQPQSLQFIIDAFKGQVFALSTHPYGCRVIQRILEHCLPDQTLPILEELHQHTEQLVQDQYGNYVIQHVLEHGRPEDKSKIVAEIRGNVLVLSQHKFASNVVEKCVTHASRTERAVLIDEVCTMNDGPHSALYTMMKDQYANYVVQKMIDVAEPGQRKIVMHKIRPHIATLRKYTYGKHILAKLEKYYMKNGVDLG

[3] = target: T3, PUM1 PUF domain R3-THE R4-TFR C935T + R936H + Q939E + N971T + H972F + Q975R (UniProt Q14671)
T3 sequence: T2 sequence with V72N, F73Y

[4] = target: T4, PUM1 PUF domain R3-THE R4-TFR R7-NPG C935T + R936H + Q939E + N971T + H972F + Q975R + S1079N + N1080P + E1083G (UniProt Q14671)
T4 sequence: T2 sequence with V72N, F73Y, S252N, N253P, E256G

[5] = target: T5, PUM1 PUF domain R6-SWD R7-NPG N1043S + Y1044W + Q1047D + S1079N + N1080P + E1083G (UniProt Q14671)
T5 sequence: T1 sequence with Q36S, F37R, R40Q, V72N, F73Y, N216S, Y217W, Q220D

[6] = target: T6, PUM1 PUF domain R3-THE R4-TFR R7-NPG C935T + R936H + Q939E + N971T + H972F + Q975R + S1079N + N1080P + E1083G (Homo sapiens) (UniProt Q14671)
T6 sequence: T2 sequence with V72N, F73Y, S252N, N253P, E256G

[7] = target: T7, PUM1 PUF domain R5-PHQ R6-SWD C1007P + R1008H + N1043S + Y1044W + Q1047D (UniProt Q14671)
T7 sequence: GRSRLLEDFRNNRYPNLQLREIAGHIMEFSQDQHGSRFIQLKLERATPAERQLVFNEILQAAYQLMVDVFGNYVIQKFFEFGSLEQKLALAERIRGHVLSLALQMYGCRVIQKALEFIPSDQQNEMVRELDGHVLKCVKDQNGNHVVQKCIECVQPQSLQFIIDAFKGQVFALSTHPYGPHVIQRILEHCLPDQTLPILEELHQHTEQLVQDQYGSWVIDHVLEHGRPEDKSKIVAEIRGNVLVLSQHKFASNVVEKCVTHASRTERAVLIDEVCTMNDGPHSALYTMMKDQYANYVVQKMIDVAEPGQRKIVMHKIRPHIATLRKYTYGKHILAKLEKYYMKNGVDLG

[8] = target: T8, PUM1 PUF domain R6-SWD R7-NPG N1043S + Y1044W + Q1047D + S1079N + N1080P + E1083G (Homo sapiens) (UniProt Q14671)
T8 sequence: T7 sequence with P180C, H181R, S252N, N253P, E256G

Sequence | binding signal (log2 enrichment (interaction score)) [1] | binding signal (log2 enrichment (interaction score)) [2] | binding signal (log2 enrichment (interaction score)) [3] | binding signal (log2 enrichment (interaction score)) [4] | binding signal (log2 enrichment (interaction score)) [5] | binding signal (log2 enrichment (interaction score)) [6] | binding signal (log2 enrichment (interaction score)) [7] | binding signal (log2 enrichment (interaction score)) [8]
GGCUAGAACUAGUGGAUCCCCCGGCGCCCGGCGGCUCGAGCCCGGGUAAGUGUCAGUUGUCUGCAUGCCGCCGGGCGCCAUGCCUGCAGGUCGACUCUAGAAAACAUG | < -5.71 | -5.18 | -6.48 | -2.03 | < -2.41 | – | – | –
GGCUAGAACUAGUGGAUCCCCCGGCGCCCGGCGGCUCGAGCCCGGGUAAGUUUAAGUCGUCUGCAUGCCGCCGGGCGCCAUGCCUGCAGGUCGACUCUAGAAAACAUG | -5.74 | -5.29 | -7.04 | – | – | -0.97 | -8.69 | -1.15
GGCUAGAACUAGUGGAUCCCCCGGCGCCCGGCGGCUCGAGCCCGGGUAAGAGGAAAAAGUCUGCAUGCCGCCGGGCGCCAUGCCUGCAGGUCGACUCUAGAAAACAUG | -4.87 | -6.43 | -8.26 | – | – | -1.51 | < -8.49 | < -1.56
